4 molecules from publication PMC4172637 can be followed below.

Amino acid sequences for entries named in this document (tags omitted).
UniProt Q24572: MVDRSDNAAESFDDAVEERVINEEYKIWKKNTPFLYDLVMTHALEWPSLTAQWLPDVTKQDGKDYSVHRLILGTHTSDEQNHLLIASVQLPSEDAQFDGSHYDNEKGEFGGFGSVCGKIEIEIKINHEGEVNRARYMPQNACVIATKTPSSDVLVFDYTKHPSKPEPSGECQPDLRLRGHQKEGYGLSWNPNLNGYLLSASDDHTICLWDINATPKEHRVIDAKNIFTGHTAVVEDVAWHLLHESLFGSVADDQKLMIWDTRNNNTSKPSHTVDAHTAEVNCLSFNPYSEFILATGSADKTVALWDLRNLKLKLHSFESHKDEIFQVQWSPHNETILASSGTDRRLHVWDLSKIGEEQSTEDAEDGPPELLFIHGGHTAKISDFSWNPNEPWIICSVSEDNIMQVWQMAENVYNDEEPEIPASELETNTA
UniProt Q24368: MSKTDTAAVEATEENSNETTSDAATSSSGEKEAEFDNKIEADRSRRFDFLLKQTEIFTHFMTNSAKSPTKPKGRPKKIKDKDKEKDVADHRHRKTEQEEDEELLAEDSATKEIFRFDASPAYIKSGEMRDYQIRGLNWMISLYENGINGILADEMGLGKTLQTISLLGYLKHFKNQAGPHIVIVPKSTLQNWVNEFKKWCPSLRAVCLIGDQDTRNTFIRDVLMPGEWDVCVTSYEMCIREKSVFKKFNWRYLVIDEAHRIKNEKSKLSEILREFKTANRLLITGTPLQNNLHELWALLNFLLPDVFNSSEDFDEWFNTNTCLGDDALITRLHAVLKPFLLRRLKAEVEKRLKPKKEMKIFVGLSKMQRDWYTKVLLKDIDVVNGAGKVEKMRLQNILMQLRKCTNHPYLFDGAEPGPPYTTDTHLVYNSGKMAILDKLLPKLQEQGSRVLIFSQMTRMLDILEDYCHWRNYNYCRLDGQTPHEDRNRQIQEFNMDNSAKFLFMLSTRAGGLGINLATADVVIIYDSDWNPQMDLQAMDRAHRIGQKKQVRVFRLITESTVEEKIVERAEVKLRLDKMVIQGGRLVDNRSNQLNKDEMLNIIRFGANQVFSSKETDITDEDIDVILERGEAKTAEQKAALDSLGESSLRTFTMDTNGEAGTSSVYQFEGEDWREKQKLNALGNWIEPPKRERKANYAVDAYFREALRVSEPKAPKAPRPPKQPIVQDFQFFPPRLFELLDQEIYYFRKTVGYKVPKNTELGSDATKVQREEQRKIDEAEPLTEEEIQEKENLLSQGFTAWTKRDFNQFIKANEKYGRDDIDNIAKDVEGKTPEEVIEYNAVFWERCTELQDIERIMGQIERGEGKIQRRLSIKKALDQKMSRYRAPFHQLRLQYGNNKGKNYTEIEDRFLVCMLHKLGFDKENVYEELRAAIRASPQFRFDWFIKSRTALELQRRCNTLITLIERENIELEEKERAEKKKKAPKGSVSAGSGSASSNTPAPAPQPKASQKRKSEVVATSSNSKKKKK
UniProt P04197: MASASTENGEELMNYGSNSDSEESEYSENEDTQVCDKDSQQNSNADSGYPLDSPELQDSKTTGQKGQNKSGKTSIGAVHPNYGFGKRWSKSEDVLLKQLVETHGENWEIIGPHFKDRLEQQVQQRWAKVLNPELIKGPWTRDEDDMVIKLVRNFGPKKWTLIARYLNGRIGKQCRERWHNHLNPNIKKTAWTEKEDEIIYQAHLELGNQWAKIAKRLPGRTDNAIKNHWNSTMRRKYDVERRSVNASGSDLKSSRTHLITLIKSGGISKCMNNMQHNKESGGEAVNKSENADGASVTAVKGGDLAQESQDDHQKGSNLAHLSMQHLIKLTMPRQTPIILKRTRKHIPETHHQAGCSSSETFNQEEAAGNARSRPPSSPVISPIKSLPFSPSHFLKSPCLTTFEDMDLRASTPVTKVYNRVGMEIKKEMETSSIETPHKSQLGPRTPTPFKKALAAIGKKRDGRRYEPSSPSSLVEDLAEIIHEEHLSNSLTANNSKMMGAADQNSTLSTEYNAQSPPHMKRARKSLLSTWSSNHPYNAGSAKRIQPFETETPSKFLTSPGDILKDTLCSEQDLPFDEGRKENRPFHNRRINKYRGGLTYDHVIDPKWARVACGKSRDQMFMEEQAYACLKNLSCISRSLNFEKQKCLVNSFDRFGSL

The target in test [1] is T1, Centrosomal protein 190 (endogenous) (Drosophila (endogenous in S2 cells)) (UniProt Q24478).
T1 sequence: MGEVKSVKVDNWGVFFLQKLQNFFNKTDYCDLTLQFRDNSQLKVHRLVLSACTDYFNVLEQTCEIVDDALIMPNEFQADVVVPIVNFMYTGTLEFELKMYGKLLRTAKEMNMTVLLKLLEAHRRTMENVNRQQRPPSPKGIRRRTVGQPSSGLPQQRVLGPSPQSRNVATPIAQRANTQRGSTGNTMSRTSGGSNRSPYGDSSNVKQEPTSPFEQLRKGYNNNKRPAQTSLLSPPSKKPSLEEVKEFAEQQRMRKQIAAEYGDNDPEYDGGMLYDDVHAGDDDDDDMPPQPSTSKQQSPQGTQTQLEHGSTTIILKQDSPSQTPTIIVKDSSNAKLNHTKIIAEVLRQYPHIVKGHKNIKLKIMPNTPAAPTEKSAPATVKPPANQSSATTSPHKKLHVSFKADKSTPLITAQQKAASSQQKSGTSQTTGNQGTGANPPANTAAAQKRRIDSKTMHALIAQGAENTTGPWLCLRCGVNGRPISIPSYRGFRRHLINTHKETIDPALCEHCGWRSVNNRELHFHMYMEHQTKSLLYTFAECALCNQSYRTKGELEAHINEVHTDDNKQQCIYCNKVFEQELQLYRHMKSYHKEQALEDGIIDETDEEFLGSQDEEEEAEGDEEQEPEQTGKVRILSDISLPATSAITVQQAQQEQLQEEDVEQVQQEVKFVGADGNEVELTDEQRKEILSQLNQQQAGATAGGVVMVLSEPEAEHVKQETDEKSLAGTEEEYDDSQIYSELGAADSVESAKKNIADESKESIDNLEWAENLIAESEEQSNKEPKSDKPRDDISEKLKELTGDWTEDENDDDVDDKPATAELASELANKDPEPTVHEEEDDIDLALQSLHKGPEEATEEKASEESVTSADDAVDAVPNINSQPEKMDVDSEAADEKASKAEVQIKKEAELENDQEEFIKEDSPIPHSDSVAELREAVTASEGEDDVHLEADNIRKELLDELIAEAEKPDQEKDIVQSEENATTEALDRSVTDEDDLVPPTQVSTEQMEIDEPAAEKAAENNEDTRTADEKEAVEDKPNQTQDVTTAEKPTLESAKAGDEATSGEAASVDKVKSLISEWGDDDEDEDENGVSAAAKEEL
In words: co-IP; endogenous: nuclear extract of wildtype S2 cells precipitated with CP190 or dCTCF specific antibodies; Western blot; mouse IgG as control.

Test [2] addresses T2, dCTCF (endogenous) (Drosophila (endogenous in S2 cells)) (UniProt Q9VS55).
T2 sequence: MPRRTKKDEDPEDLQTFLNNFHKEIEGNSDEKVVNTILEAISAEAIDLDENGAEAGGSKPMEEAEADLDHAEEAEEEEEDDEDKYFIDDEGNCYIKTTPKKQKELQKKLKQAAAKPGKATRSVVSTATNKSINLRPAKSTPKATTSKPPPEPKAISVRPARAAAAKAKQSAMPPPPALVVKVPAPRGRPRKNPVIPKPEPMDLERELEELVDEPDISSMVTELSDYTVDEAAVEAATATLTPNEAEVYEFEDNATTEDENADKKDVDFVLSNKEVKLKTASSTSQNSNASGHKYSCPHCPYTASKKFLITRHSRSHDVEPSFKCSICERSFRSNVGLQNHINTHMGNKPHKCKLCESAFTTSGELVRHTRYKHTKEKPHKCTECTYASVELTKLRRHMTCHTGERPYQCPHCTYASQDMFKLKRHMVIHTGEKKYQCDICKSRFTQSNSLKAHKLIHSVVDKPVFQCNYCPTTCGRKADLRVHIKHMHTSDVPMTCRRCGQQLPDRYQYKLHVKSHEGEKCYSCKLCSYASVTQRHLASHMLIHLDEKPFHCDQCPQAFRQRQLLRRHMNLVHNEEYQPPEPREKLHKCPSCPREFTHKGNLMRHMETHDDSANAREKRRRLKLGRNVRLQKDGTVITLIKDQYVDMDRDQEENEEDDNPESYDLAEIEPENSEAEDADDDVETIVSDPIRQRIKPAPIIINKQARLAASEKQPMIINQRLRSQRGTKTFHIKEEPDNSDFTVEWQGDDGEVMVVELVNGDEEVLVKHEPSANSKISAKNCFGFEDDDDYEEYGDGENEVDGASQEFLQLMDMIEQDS
The description is as above.

Another test has as its target T3, FLAG-CP190 (Drosophila) (UniProt Q24478).
T3 sequence: T1 sequence
Nature of the test: co-IP; FLAG-M2 antibody precipitation from nuclear extract of S2 cells stably expressing FLAG-CP190 or FLAG-dCTCF; washes 20 mM Tris-HCl pH 7.5, 100 mM NaCl, 0.25% NP-40; Western blot; untransfected S2 cells as negative control.

In the next test the target is T4, FLAG-dCTCF (Drosophila) (UniProt Q9VS55).
T4 sequence: T2 sequence
Described as above.

These are yes or no findings as the source states them, for the method shown. In cells and extracts the contact can be indirect. Some binding calls cover weakened binding; strength is not graded here. For some of these results: Tags and fused reporters may be left off the sequences shown.

As for CAF-1/p55 (from UniProt Q24572 1-430), the binding result (in test [1]; in test [2]; with FLAG-CP190 (Drosophila); with FLAG-dCTCF (Drosophila)) was “binds” each time.

For the molecule ISWI (from UniProt Q24368 1-1027), the binding entry (in test [1]; in test [2]; with FLAG-CP190 (Drosophila); with FLAG-dCTCF (Drosophila)) was “binds” throughout.

Take Myb (from UniProt P04197 1-657): the binding entry was “binds weakly” in test [1], “binds weakly” in test [2], “binds” with FLAG-CP190 (Drosophila) and “binds” with FLAG-dCTCF (Drosophila).

B1: Mip120 (protein, UniProt A1Z9E2 1-950)
chain: MDTSGGNLDSLDDTEPLPELSFEDFLEPTSEKSSQHMEIEALDSEEDNIGGEDLADPANDSLNTPQFKKNVVHILEDKRLNSSGLTVLKSHAIKMVTAGGTPPAKAQVTDVKILNKLKPIPSSTLKIGSTTIATKSTPGSITKTLGNLTQIRTKDGQVIFVQKSVPGTQSSTAVTGSPSGGIRRLVAPSGIQKAVLSKGVTMASTGLVKAAVPAKASTSVPGSAITLKGIQPLAGGTAKASTSSTTATTSPSLAQPNKIQVVRTADGKIIKINQAGPSLLVNAKQGTGTTVTPGGSAATSVKLSPSTGNVVLNKPVGQVVVRTETPVKTATGSVASASATPGKMLVQSGGKQILVSNKNIIKLSPNASATSSTTHTTGGQTPSTSSGLHAIQLPGKGGIQYVRVLNNNKSAAGTSATASIPKTVQTQKITVVRPPAATGVPATSTTTSAAAASPAAASKANLAMGNTNKIVMRSMGGSIVPLPSVQTLVSKRALGAISNASKPASAASSSATPSASQELPRKHRLTDLNVQLKQSASVSSEASDSSDAGPEAKKPRYVITMQQGSQKAASQPVQKLINRTANVQRVVSSSTSPSSNSTKKIYNYVQPTGSNGAKYMICNSGVPQSSTSAMRRGYTGYVENKTRRPPPISPQQHRFKQMGPQQQSKHQQLQAQAKQRIRQQQLPTEQSTPIKVEPKLPTLPPGVKANVPAKPLFEVLKPPATAAAAGAVDPLGGMTSRRKHCNCSKSQCLKLYCDCFANGEFCQDCTCKDCFNNLDYEVERERAIRSCLDRNPSAFKPKITAPNSGDMRLHNKGCNCKRSGCLKNYCECYEAKIPCSSICKCVGCRNMEDRPDVDMDSLDGLMGVEGQKKDKAKNKQLNENRANIYFTDDVIEATIMCMISRIVMHEKQNVAVEDMEREVMEEMGESLTQIIAFAKEKQETSQIDESKPSS
For the molecule B1, the binding entry (in test [1]; in test [2]; with FLAG-CP190 (Drosophila); in the test with FLAG-dCTCF (Drosophila)) was “binds” each time.
